From PMC11377567 come the findings set out here.

Sequences of proteins named here, by UniProt entry; tags and fusion partners are left off.
UniProt P08050: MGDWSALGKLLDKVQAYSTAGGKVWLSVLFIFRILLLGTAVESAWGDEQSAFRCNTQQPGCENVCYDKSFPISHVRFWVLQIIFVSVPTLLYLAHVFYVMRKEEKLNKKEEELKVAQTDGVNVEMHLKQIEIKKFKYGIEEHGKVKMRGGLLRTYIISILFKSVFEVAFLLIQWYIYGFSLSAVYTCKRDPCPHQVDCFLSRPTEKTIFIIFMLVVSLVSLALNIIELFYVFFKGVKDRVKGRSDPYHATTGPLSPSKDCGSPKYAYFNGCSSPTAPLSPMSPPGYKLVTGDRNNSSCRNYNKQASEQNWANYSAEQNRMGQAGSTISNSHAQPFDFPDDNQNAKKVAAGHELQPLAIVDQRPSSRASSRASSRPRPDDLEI
UniProt P17931: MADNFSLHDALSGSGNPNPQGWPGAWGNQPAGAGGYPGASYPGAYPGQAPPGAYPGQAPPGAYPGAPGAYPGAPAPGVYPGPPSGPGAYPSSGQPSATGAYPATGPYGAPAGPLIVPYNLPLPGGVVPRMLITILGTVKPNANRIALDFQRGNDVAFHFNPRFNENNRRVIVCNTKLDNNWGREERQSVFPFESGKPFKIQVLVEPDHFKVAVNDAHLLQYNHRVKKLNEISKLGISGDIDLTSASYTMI

No constants are given. Whether binding was seen depends on the method and setting. Binding seen in cells or lysates may run through a third protein. Some results given as binding are weak or reduced against the parent protein; the word gives no strength.

In this assay the target is Connexin43 (rat) (UniProt P08050). As to the kind of experiment: co-IP; immunoprecipitation with goat anti-Cx43 (0.5 ug) from 300 ug RIPA lysate of HEK293^Cx43+ cells, overnight at 4 °C, Protein G Sepharose, Western blot; cells untreated or treated with LLOMe (10 or 60 min), for Arp2 also with cytochalasin D in the last 30 min. (Immunoblotting shows a protein as a band on a membrane.)

For the substance “mCherry-Galectin3 (from UniProt P17931 1-250)”, the binding entry is given as “binds”.
